Source: article PMC12989817
These are yes or no findings as the source states them, for the method shown. In cells and extracts the contact can be indirect. Binding can be weak; no strength is given.

Target: N-terminal Kv1.3-TurboID (V5-TurboID-Kv1.3 fusion) (human) (UniProt P22001)
Test: co-IP; NP40 lysates of N-terminal Kv1.3-TurboID Jurkat T-cells, 1 μg V5 antibody overnight at 4°C, Protein G Dynabeads; western blot for STIM1, CD3E, V5; untransduced Jurkat T-cells as control

| binding | Substance |
| --- | --- |
| no binding | CD3E (from UniProt P07766 23-207) |
| binds | STIM1 (from UniProt Q13586 23-685) |
